We go through 66 sequences from PubChem BioAssay AID1347423 (Functional Genomics Laboratory (NCATS/FGL), 2020).

Hit rate of the full screen: of about 52,000 sequences, about 210 (0.4%) were called active.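 Rule for the calls: active = gene whose silencing raises cell survival under the drug, median off-target-corrected z-score across its silencing RNAs 2 or more; inactive = the rest.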 The list shows a part of the results.

This experiment in a line: Resistance to Poly (ADP-Ribose) Polymerase inhibitor: Gene Identification via Genome-wide siRNA Screen. The note with it: mouse BRCA2 R2336H ES cells, olaparib, CellTiter-Glo viability; hits give high values. The gist of the method:
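Mouse BRCA2 R2336H ES cells were reverse-transfected with siRNA (20 nM final), treated at 48 h with 500 nM olaparib, and read by CellTiter-Glo after 72 h. Scores: MAD-based z per siRNA, median per gene, seed off-target correction.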
In general terms: Cellular ATP, detected with luciferase, serves as a proxy for viable cell number.
As to GGGCAUGCAAUGUUCAUGCTT against Rho, the z-score is inactive: -1.33.
As for GGGCCAUAAGAUCUGUACUTT against Ccl24, the figure is inactive: -0.00359; as for “GGGAAUCUUCUUUCAGACCTT against C330003B14Rik”, inactive: 1.19.
As for GGAGUUUUACGGACUGCUGTT against Pard6b, the figure is inactive: -0.748; as for “CCGUCUGGCCAGUGAAAUUTT against 1700019D03Rik”, inactive: -0.121; as for GGUUGCUUCCUCUUAAUUUTT against Eda, inactive: 1.44.
As to CGUGCAAGCAGUGAUUUUGTT against Smpx, the z-score is inactive: 1.32.
Under CCAAGAGGAAAGCAUAGAUTT against Fliih stands inactive: -0.808; under GGGCUGCAUUACACAAAUGTT against Olfr1496, inactive: 0.0704; under GCAGGUCAACUGUUUUAUCTT against Bcap31, inactive: 1.06.
As for “GGUAUUCGUGGAGUGGAGATT against 6030457N17Rik”, the figure is inactive: 0.1; as for GACAGCAACGUGAAAUUAGTT against Xlr, inactive: 0.888.
Under “GCAACGGACUUCCUCUCACTT against A630047E20Rik” stands inactive: 0.592.
Regarding GGACUGUCCUCCAAUUUGCTT against Cml3, the z-score was inactive: -0.556.
Under GGAUGUAAACGAAUGUGCUTT against Lrp4 stands inactive: -0.14; under GGAGAGUCUCCAGACUUUGTT against Ixl, inactive: 1.33.
Regarding GGGUCAGAGUUUUUCCAUCTT against Otog, the z-score was inactive: 0.692.
Under CGUCAAGAUCAAUAACUUGTT against LOC214403 stands inactive: -0.419; under GGAGCAGCUGCACUUGUAUTT against Nkiras1, inactive: -0.838; under GGACACUAUGCAAUCACCCTT against Ubce7ip1, inactive: 1.03.
On to GGAUACACUGAUACUAUACTT against Pwp2h, for which the z-score was inactive: -0.394.
As for “GGAACUUGAUCCUCAAUUUTT against 1110002E23Rik”, the figure is inactive: 1.74; as for CCAUGGCAGGCAAUUUGAUTT against Olfr1254, inactive: -0.282.
In the case of GGCUGUUUUCUGUGCUACATT against Olfr298, the z-score is inactive: 4.07.
As for “CCAGUACGAUUUCUCUCGATT against 2310057J16Rik”, the figure is inactive: 0.977; as for GGCUCAGGCAUUGUCCUGUTT against Il10ra, inactive: 0.31.
Take “GGACAGAAUGGACCUCUUCTT against B230113M03Rik”: the z-score is inactive: -1.22.
As for CGAGUUCAAACCGUCCUCUTT against Sdhc, the figure is inactive: -0.413.
In the case of “CGGCUCGUUGAAGAACAAATT against 2600003E23Rik”, the z-score is inactive: -1.87.
Under CCCUAAAACCAGGUAUCAATT against Vdac1 stands inactive: 0.0164; under GUAUAUCUUUGGCUGGGUGTT against Olfr460, inactive: -1.13.
Under GCGAUGUUAGUAAUACAACTT against Six1 stands inactive: -2.06; under CGUCUCUGAUAUUGUCGGCTT against Fbl, inactive: -1.98; under UAUUAAACUCUUGAGACCGTT against Oxa1l, inactive: -0.271.
As for GCUGGUAGCAUUCUUAUCCTT against Xylt2, the figure is inactive: 1.5; as for GGACAGUGUCUAGAUAUUGTT against Fbln5, inactive: -0.266.
Regarding “GGAGAAGAGAGUAUUUAAUTT against 2310069P03Rik”, the z-score was inactive: 0.547.
Under CGUGUUAUGACAAAAGAGGTT against Defb39 stands inactive: 0.962.
As for GGUUCGUGUGGUUUAACAUTT against Afg3l1, the z-score was inactive: 0.554.
As for GGUGGAUAGAGCAAUUGAATT against Jph1, the figure is inactive: -0.483; as for GGAAAUACUCAUCAAGUCUTT against Phldb2, inactive: -1.05; as for GAGGCUCUGUGGAAUUUUATT against Olfr1217, inactive: 1.65.
Under CCUGCUGCUUAUUAAAGUUTT against Bckdk stands inactive: 1.45.
As for GGCUCUGUCUCUUAAUGGGTT against Gpx5, the figure is inactive: 0.933; as for GGAGGAUCCACGAUUACUUTT against Ifnt1, inactive: -1.38.
Regarding “CGUACAGUGAUGAUUUUGATT against 4922501C03Rik”, the z-score is inactive: 1.45.
Under CCUAUAAUCCCAGAGAAAATT against Cobll1 stands inactive: -0.731.
With GGCCAAGGUGAGAGUACUGTT against Hsd3b5, the z-score is inactive: -0.796.
As for GGUCUCCACUGAGGACUGUTT against Ndufa2, the figure is inactive: -0.746; as for “GGGUAAAUCCUUCAUUCUGTT against 5730596K20Rik”, inactive: 0.869.
As for CCUGGAGGUGACCGCUUUATT against Cdc20, the figure is inactive: -1.11; as for GGUGGAUACACAGGACAAATT against Invs, inactive: -0.32; as for GCACAAUUUCGUGUGAGCUTT against Sfxn5, inactive: -0.969.
As for GGACGAACUCAUCAACAGUTT against Gtf2ird1, the figure is inactive: 1.42.
In the case of “GCCUGUCAUUAAUCUGACATT against 9030409G11Rik”, the z-score was inactive: -0.774.
Consider CGACGAAGAUUCUGACAAUTT against Gpr153, for which the z-score is inactive: 1.63.
As for GGAGUAAACGACAAAAUGGTT against Gosr1, the figure is inactive: -0.845; as for “GGUGGUGACAGGAACCUCUTT against A630029F06”, inactive: 0.29; as for GCCCGCAUUUUGGAAACUCTT against Lmbr1, inactive: -0.114.
On to GGCUGAACUUCUUUCCAAGTT against Cd209b, for which the z-score is inactive: 0.0468.
As for GAGCCACUUUCUCAAGUGUTT against Pou3f1, the figure is inactive: 0.933; as for GGAGCUCUGUCAUGAGUUUTT against AI427652, inactive: 1.43; as for CGUUGGUACCAAGAAGUACTT against Snai3, inactive: -0.942.
Under GCCAUAUCUGUCCAAGUUATT against Sdf2l1 stands inactive: -0.182; under GGUCCAAAAGUGACAUAUATT against Ddx4, inactive: -0.934; under “GGACAGGUAAAAAUUUAGGTT against 9330128H10Rik”, inactive: 0.803.
